Drawing on PMC7435865 (Molecules, 2020), this text covers step yield for eight substances.

Strings that start with PEPTIDE1 are HELM notation: dots part the residues, brackets hold end groups and non-standard residues.

This series is described as follows: general procedure: solution-phase peptide synthesis; DCC/HOSu. The note with it: late stage modification step.
On to “PEPTIDE1{Y.P.F.F.[NHN-CH-35CF3Ph]}$$$$V2.0”, for which the step yield is listed as 32%.

Consider “PEPTIDE1{Y.[dA].F.F.[NHN-CH-35CF3Ph]}$$$$V2.0”, for which the step yield amounted to 28%.

“PEPTIDE1{Y.[dA].F.F.[NHNHCO-35CF3Ph]}$$$$V2.0” yielded a step yield of 42%.

Substance “PEPTIDE1{Y.[dA].G.F.[NHNHCO-35CF3Ph]}$$$$V2.0” gave a step yield of 16%.

Turning to “PEPTIDE1{Y.[dA].G.F.[NHNHCOCH2-35CF3Ph]}$$$$V2.0”, the step yield is on record as 22%.

“PEPTIDE1{Y.[dA].G.F.[NHNHCONHN-CH-35CF3Ph]}$$$$V2.0” came in with a step yield of 20%.

The substance “PEPTIDE1{Y.[dA].G.W.[NHN-CH-35CF3Ph]}$$$$V2.0” had a step yield of 21%.

Substance “PEPTIDE1{Y.[dA].G.W.[NHNHCO-35CF3Ph]}$$$$V2.0” came in with a step yield of 19%.
